Values from PubChem BioAssay AID602196 (INSERM, 2012).
Purpose: 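Knock-downs that protect lung cancer cells from cisplatin or sensitise them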. System: human A549 lung cancer cells. Knock-down reagent: siRNA pair against human genes. Time to read-out: 48 h transfection before cisplatin; time from cisplatin to read-out not stated. Challenge: cisplatin at a dose killing half of control-siRNA cells; exact dose and duration not given. Measurement: 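Cisplatin cell death as a shift from the 50% death seen with control siRNA; siRNAs toxic or growth-blocking alone scored 0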. Scale: two-siRNA summed score (-2 to +2): higher = both siRNAs protect from cisplatin killing; -2 means both sensitise; mean protection from cisplatin (shift in death): higher = protection from cisplatin killing. Call rule: 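siRNAs harmful alone (LDH or WST-1) get 0; others get +1 for less and -1 for more cisplatin killing; genes are active when the two siRNAs give the same sign, summing to ±2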. Calls: active = both siRNAs shift cisplatin killing the same way; inactive = no consistent shift, or siRNA harmful alone.
In all, the deposit lists about 23,000 reagents; below is a part drawn at random. Of all reagents, 455 (2%) got an active call. 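Active includes both protection and sensitisation; some change values fall well beyond the stated -50 to +50 range.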 Entries without a mark were called inactive. Further read-outs or replicates are left out here. Reagent sequences are not shown. Not given: the amount of reagent.

Silencing of SUPT5H (SPT5 homolog, DSIF elongation factor subunit) [SID131502014] resulted in: two-siRNA summed score (-2 to +2) = -1; mean protection from cisplatin (shift in death) (%) = -5.9.
For PLAAT5 (phospholipase A and acyltransferase 5) [SID131516039] the deposit lists two-siRNA summed score (-2 to +2) = 0; mean protection from cisplatin (shift in death) (%) = 10.1.
After knock-down of CABYR (calcium binding tyrosine phosphorylation regulated) [SID131520272], the screen gave two-siRNA summed score (-2 to +2) = 1; mean protection from cisplatin (shift in death) (%) = 9.3.
ING5 (inhibitor of growth family member 5) [SID131501636] scored two-siRNA summed score (-2 to +2) = -1; mean protection from cisplatin (shift in death) (%) = -8.5.
STK10 (serine/threonine kinase 10) [SID131507096] scored two-siRNA summed score (-2 to +2) = 0; mean protection from cisplatin (shift in death) (%) = -0.6.
OR6K6 (olfactory receptor family 6 subfamily K member 6) [SID131517282] gave two-siRNA summed score (-2 to +2) = 0; mean protection from cisplatin (shift in death) (%) = 12.9.
Against LOC388065 [SID131511775] the deposit lists two-siRNA summed score (-2 to +2) = 0; mean protection from cisplatin (shift in death) (%) = 4.7.
Depletion of LOC342991 [SID131508335] gave: two-siRNA summed score (-2 to +2) = 0; mean protection from cisplatin (shift in death) (%) = 0.9.
Knock-down of PCDHA13 (protocadherin alpha 13) [SID131510426] resulted in: two-siRNA summed score (-2 to +2) = 0; mean protection from cisplatin (shift in death) (%) = 3.2.
ZNF184 (zinc finger protein 184) [SID131508583] showed two-siRNA summed score (-2 to +2) = 0; mean protection from cisplatin (shift in death) (%) = 1.2.
With knock-down of SLC39A11 [SID131521654], the record shows two-siRNA summed score (-2 to +2) = 1; mean protection from cisplatin (shift in death) (%) = 14.3.
P2RX4 (purinergic receptor P2X 4) [SID131505974] gave two-siRNA summed score (-2 to +2) = 0; mean protection from cisplatin (shift in death) (%) = -2.2.

Entries above whose gene name starts with S or s (3):
SUPT5H (SPT5 homolog, DSIF elongation factor subunit) [SID131502014] | two-siRNA summed score (-2 to +2) = -1; mean protection from cisplatin (shift in death) (%) = -5.9
STK10 (serine/threonine kinase 10) [SID131507096] | two-siRNA summed score (-2 to +2) = 0; mean protection from cisplatin (shift in death) (%) = -0.6
SLC39A11 [SID131521654] | two-siRNA summed score (-2 to +2) = 1; mean protection from cisplatin (shift in death) (%) = 14.3

Continued.
Depletion of GBP4 (guanylate binding protein 4) [SID131508934] gave: two-siRNA summed score (-2 to +2) = 0; mean protection from cisplatin (shift in death) (%) = 1.6.
Silencing of PRR18 (proline rich 18) [SID131511930] resulted in: two-siRNA summed score (-2 to +2) = 0; mean protection from cisplatin (shift in death) (%) = 4.9.
After knock-down of HGFAC (HGF activator) [SID131504846], the record shows two-siRNA summed score (-2 to +2) = 0; mean protection from cisplatin (shift in death) (%) = -4.4.
For ATAD5 (ATPase family AAA domain containing 5) [SID131502216], the entry reads two-siRNA summed score (-2 to +2) = -1; mean protection from cisplatin (shift in death) (%) = -4.3.
For LOC121456 [SID131505486], the entry reads two-siRNA summed score (-2 to +2) = 0; mean protection from cisplatin (shift in death) (%) = -3.1.
GSTM2 (glutathione S-transferase mu 2) [SID131516014] scored two-siRNA summed score (-2 to +2) = 0; mean protection from cisplatin (shift in death) (%) = 10.1.
SLAMF7 (SLAM family member 7) [SID131516413] scored two-siRNA summed score (-2 to +2) = 0; mean protection from cisplatin (shift in death) (%) = 10.8.
Depletion of LOC345430 [SID131509129] resulted in: two-siRNA summed score (-2 to +2) = 0; mean protection from cisplatin (shift in death) (%) = 1.8.
TTC7B (tetratricopeptide repeat domain 7B) [SID131519835] scored two-siRNA summed score (-2 to +2) = 1; mean protection from cisplatin (shift in death) (%) = 7.7.
Depletion of PDE4C (phosphodiesterase 4C) [SID131511526] resulted in: two-siRNA summed score (-2 to +2) = 0; mean protection from cisplatin (shift in death) (%) = 4.4.
Depletion of HOXC5 (homeobox C5) [SID131502754] gave: two-siRNA summed score (-2 to +2) = -1; mean protection from cisplatin (shift in death) (%) = 6.3.
C1QTNF5 (C1q and TNF related 5) [SID131519606] showed two-siRNA summed score (-2 to +2) = 1; mean protection from cisplatin (shift in death) (%) = 6.6.
PCTP (phosphatidylcholine transfer protein) [SID131508656] showed two-siRNA summed score (-2 to +2) = 0; mean protection from cisplatin (shift in death) (%) = 1.3.
NPHP4 (nephrocystin 4) [SID131519809] showed two-siRNA summed score (-2 to +2) = 1; mean protection from cisplatin (shift in death) (%) = 7.6.
After knock-down of MGC20533 [SID131518480], the screen gave two-siRNA summed score (-2 to +2) = 0; mean protection from cisplatin (shift in death) (%) = 20.3.
Against DKFZp434I1117 [SID131507405] the deposit lists two-siRNA summed score (-2 to +2) = 0; mean protection from cisplatin (shift in death) (%) = -0.2.
With knock-down of DDX11 (DEAD/H-box helicase 11) [SID131516324], the screen gave two-siRNA summed score (-2 to +2) = 0; mean protection from cisplatin (shift in death) (%) = 10.7.
After knock-down of ACOX2 (acyl-CoA oxidase 2) [SID131521639], the record shows two-siRNA summed score (-2 to +2) = 1; mean protection from cisplatin (shift in death) (%) = 14.3.
BOD1L1 (biorientation of chromosomes in cell division 1 like 1) [SID131511893] gave two-siRNA summed score (-2 to +2) = 0; mean protection from cisplatin (shift in death) (%) = 4.9.
